Measured data: PubChem BioAssay AID1259405 (NCATS, 2018)
Shown is a random part of about 50,000 reagents. Of all reagents, about 4,000 (8%) are marked active. 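Mouse siRNA library applied to hamster cells; one well for each siRNA.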 Reagents against one gene are numbered here. Reagent sequences are not shown.

Test: 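Knock-downs that lift recombinant protein yield in hamster ovary cells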 (primary screen)
System: Chinese hamster CHO-K1 ovary cells with stable secreted eGFP expression
Knock-down reagent: single siRNA against mouse genes, 0.8 pmol siRNA per well (2 µl of 400 nM stock)
Timing: 3 days
Measured: 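Per-well intracellular GFP measured by laser scanning cytometry, plus viability from ATP luminescence, each relative to plate median of non-targeting control wells, in %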
Direction: GFP, % of control: higher = more GFP per well, higher productivity; viability (ATP), % of control: higher = more viable cells (more ATP)
Hit rule: 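Called active when intracellular GFP, relative to negative control, is at or above 120%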

target | reagent no. | GFP, % of control | viability (ATP), % of control | activity call
Nup62 (nucleoporin 62) | 1 | 98.6 | 65.5 | inactive
Nup62 (nucleoporin 62) | 2 | 97.1 | 89.4 | inactive
Nup62 (nucleoporin 62) | 3 | 45.1 | 57.5 | inactive
Pla2g12a (phospholipase A2, group XIIA) | 1 | 69.8 | 58.8 | inactive
Pla2g12a (phospholipase A2, group XIIA) | 2 | 62 | 60.8 | inactive
Glyat (glycine-N-acyltransferase) | 1 | 43.6 | 45.2 | inactive
Glyat (glycine-N-acyltransferase) | 2 | 71.6 | 81.4 | inactive
Glyat (glycine-N-acyltransferase) | 3 | 87.2 | 68.2 | inactive
Hoga1 (4-hydroxy-2-oxoglutarate aldolase 1) | 1 | 76.1 | 82.6 | inactive
Hoga1 (4-hydroxy-2-oxoglutarate aldolase 1) | 2 | 52.4 | 50.9 | inactive
Hoga1 (4-hydroxy-2-oxoglutarate aldolase 1) | 3 | 69.4 | 82.8 | inactive
Eif4a3 (eukaryotic translation initiation factor 4A3) | 1 | 79.6 | 67.2 | inactive
Eif4a3 (eukaryotic translation initiation factor 4A3) | 2 | 43.8 | 21.6 | inactive
Eif4a3 (eukaryotic translation initiation factor 4A3) | 3 | 196 | 132 | active
Ap1s3 (adaptor-related protein complex AP-1, sigma 3) | 1 | 79.1 | 70.5 | inactive
Ap1s3 (adaptor-related protein complex AP-1, sigma 3) | 2 | 90.7 | 98.5 | inactive
Ap1s3 (adaptor-related protein complex AP-1, sigma 3) | 3 | 87 | 73.9 | inactive
Cnp (2',3'-cyclic nucleotide 3' phosphodiesterase) | 1 | 103 | 84.2 | inactive
Cnp (2',3'-cyclic nucleotide 3' phosphodiesterase) | 2 | 109 | 98.1 | inactive
Cnp (2',3'-cyclic nucleotide 3' phosphodiesterase) | 3 | 51.9 | 53.5 | inactive
Ssmem1 (serine-rich single-pass membrane protein 1) | 1 | 22.6 | 65 | inactive
Ssmem1 (serine-rich single-pass membrane protein 1) | 2 | 37.6 | 47.7 | inactive
Ssmem1 (serine-rich single-pass membrane protein 1) | 3 | 85.6 | 80.5 | inactive
Anp32b (acidic nuclear phosphoprotein 32 family member B) | 1 | 75.6 | 100 | inactive
Anp32b (acidic nuclear phosphoprotein 32 family member B) | 2 | 80.9 | 116 | inactive
Anp32b (acidic nuclear phosphoprotein 32 family member B) | 3 | 88.6 | 104 | inactive
Cdk7 (cyclin dependent kinase 7) | 1 | 93.4 | 59.6 | inactive
Pdgfa (platelet derived growth factor, alpha) | 1 | 131 | 102 | active
Pdgfa (platelet derived growth factor, alpha) | 2 | 66.5 | 63.1 | inactive
Pdgfa (platelet derived growth factor, alpha) | 3 | 81.9 | 70.6 | inactive
Or56b35 (olfactory receptor family 56 subfamily B member 35) | 1 | 59.5 | 55.8 | inactive
Or56b35 (olfactory receptor family 56 subfamily B member 35) | 2 | 53.3 | 57.9 | inactive
Or56b35 (olfactory receptor family 56 subfamily B member 35) | 3 | 47.3 | 67.3 | inactive
Smim19 (small integral membrane protein 19) | 1 | 41.4 | 68.2 | inactive
Smim19 (small integral membrane protein 19) | 2 | 80.5 | 86.9 | inactive
Smim19 (small integral membrane protein 19) | 3 | 88.5 | 86.2 | inactive
Dus3l (dihydrouridine synthase 3 like) | 1 | 72.4 | 55.7 | inactive
Dus3l (dihydrouridine synthase 3 like) | 2 | 40.9 | 70.6 | inactive
Dus3l (dihydrouridine synthase 3 like) | 3 | 98.1 | 63.2 | inactive
Col12a1 (collagen, type XII, alpha 1) | 1 | 71.3 | 156 | inactive
Col12a1 (collagen, type XII, alpha 1) | 2 | 74.4 | 71.1 | inactive
Zfp454 (zinc finger protein 454) | 1 | 71.2 | 70.9 | inactive
Zfp454 (zinc finger protein 454) | 2 | 44.3 | 45.5 | inactive
Zfp454 (zinc finger protein 454) | 3 | 90.5 | 94.6 | inactive
Or14j4 (olfactory receptor family 14 subfamily J member 4) | 1 | 83.2 | 63.2 | inactive
Or14j4 (olfactory receptor family 14 subfamily J member 4) | 2 | 62.2 | 64.6 | inactive
Or14j4 (olfactory receptor family 14 subfamily J member 4) | 3 | 68.4 | 84.2 | inactive
Ip6k2 (inositol hexaphosphate kinase 2) | 1 | 22.4 | 70 | inactive
Ip6k2 (inositol hexaphosphate kinase 2) | 2 | 48 | 89.3 | inactive
Ip6k2 (inositol hexaphosphate kinase 2) | 3 | 78.2 | 79.8 | inactive
Adora3 (adenosine A3 receptor) | 1 | 55.3 | 65.9 | inactive
Adora3 (adenosine A3 receptor) | 2 | 74.4 | 108 | inactive

Individual results from above.
For “viability (ATP), % of control”, Zfp454 (zinc finger protein 454) #3 reads 94.6
Result of Adora3 (adenosine A3 receptor) #2 in “viability (ATP), % of control”: 108
Result of Or56b35 (olfactory receptor family 56 subfamily B member 35) #3 in “activity call”: inactive
Glyat (glycine-N-acyltransferase) #3, viability (ATP), % of control = 68.2

Continued.
target | reagent no. | GFP, % of control | viability (ATP), % of control | activity call
Ripk2 (receptor (TNFRSF)-interacting serine-threonine kinase 2) | 1 | 51.6 | 52.8 | inactive
Prdx5 (peroxiredoxin 5) | 1 | 102 | 81.4 | inactive
Prdx5 (peroxiredoxin 5) | 2 | 39.9 | 39.1 | inactive
Prdx5 (peroxiredoxin 5) | 3 | 88.3 | 62.1 | inactive
Rgp1 (RAB6A GEF compex partner 1) | 1 | 65.7 | 67.1 | inactive
Rgp1 (RAB6A GEF compex partner 1) | 2 | 84.8 | 81.3 | inactive
Rgp1 (RAB6A GEF compex partner 1) | 3 | 123 | 120 | active
Lhx4 (LIM homeobox protein 4) | 1 | 31.5 | 56.6 | inactive
Lhx4 (LIM homeobox protein 4) | 2 | 60.1 | 69.3 | inactive
Lhx4 (LIM homeobox protein 4) | 3 | 61.2 | 80.1 | inactive
Mnmip1 (manchette microtubule inner protein 1) | 1 | 71.1 | 77.4 | inactive
Mnmip1 (manchette microtubule inner protein 1) | 2 | 109 | 101 | inactive
Mnmip1 (manchette microtubule inner protein 1) | 3 | 51.4 | 69.9 | inactive
Abcc2 (ATP-binding cassette, sub-family C member 2) | 1 | 121 | 86.3 | active
Abcc2 (ATP-binding cassette, sub-family C member 2) | 2 | 50 | 53.8 | inactive
Abcc2 (ATP-binding cassette, sub-family C member 2) | 3 | 50.8 | 70.4 | inactive
Spata31d1d (spermatogenesis associated 31 subfamily D, member 1D) | 1 | 63.5 | 70.7 | inactive
Spata31d1d (spermatogenesis associated 31 subfamily D, member 1D) | 2 | 112 | 75.2 | inactive
Spata31d1d (spermatogenesis associated 31 subfamily D, member 1D) | 3 | 76.6 | 108 | inactive
Arl11 (ADP-ribosylation factor-like 11) | 1 | 102 | 72.4 | inactive
Arl11 (ADP-ribosylation factor-like 11) | 2 | 86.3 | 77.3 | inactive
Arl11 (ADP-ribosylation factor-like 11) | 3 | 114 | 86.3 | inactive
Akt2 (Akt serine/threonine kinase 2) | 1 | 68.3 | 55.2 | inactive
Rep15 (RAB15 effector protein) | 1 | 78.1 | 63.9 | inactive
Rep15 (RAB15 effector protein) | 2 | 96.2 | 95.8 | inactive
Rep15 (RAB15 effector protein) | 3 | 86.5 | 85.3 | inactive
G0s2 (G0/G1 switch gene 2) | 1 | 87.9 | 68.1 | inactive
G0s2 (G0/G1 switch gene 2) | 2 | 111 | 88.5 | inactive
G0s2 (G0/G1 switch gene 2) | 3 | 75.2 | 76 | inactive
Idh3a (isocitrate dehydrogenase 3 (NAD+) alpha) | 1 | 48.1 | 58.7 | inactive
Idh3a (isocitrate dehydrogenase 3 (NAD+) alpha) | 2 | 77.6 | 57.9 | inactive
Idh3a (isocitrate dehydrogenase 3 (NAD+) alpha) | 3 | 87.3 | 105 | inactive
